Experimental findings from article PMC5670207 are described below.

Protein sequences, listed by entry. Tags and fused reporters are not part of them. Residues count along the entry.
UniProt P42768, residues 201-321: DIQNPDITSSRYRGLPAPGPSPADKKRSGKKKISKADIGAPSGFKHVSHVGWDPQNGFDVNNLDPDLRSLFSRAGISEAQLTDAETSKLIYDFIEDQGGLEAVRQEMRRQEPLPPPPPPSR
UniProt P60953: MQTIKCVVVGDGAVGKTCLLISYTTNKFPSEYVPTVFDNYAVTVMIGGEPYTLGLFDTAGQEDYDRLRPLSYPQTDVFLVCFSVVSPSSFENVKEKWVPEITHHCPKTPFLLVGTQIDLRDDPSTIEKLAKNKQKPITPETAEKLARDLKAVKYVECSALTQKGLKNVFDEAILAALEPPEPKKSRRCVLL

These are yes or no findings as the source states them, for the method shown. Binding seen in cells or lysates may run through a third protein. Some entries that bind do so weakly or less than the wild type.

The assay has as its target GST-Wiskott-Aldrich Syndrome protein (WASP)-CRIB (UniProt P42768). Kind of assay: pull-down; GST fusion protein on Glutathione Sepharose 4B beads incubated overnight at 4 °C with lysates of SCP2 cells (stably infected with scrambled or EPHA4 shRNA, stimulated with TGF-β1 for different times); lysis buffer 50 mM Tris-HCl pH 7.5, 1% Triton X-100, 0.5% sodium deoxycholate, 0.1% SDS, 500 mM NaCl, 10 mM MgCl2; beads washed 4 times with cold binding buffer; Western blot with GTPase-specific antibodies; only the target purified.

For the substance Cdc42 (from UniProt P60953 1-191), the binding entry was “binds”.
